{"source": "paper doi:10.1101/2023.10.18.561931", "binders": {"B1": {"name": "E. coli CpxA sensor domain corresponding to residues 31-163 (domain or fragment, UniProt P0AE82 31-163)", "chain": "DSRQMTELLDSEQRQGLMIEQHVEAELANDPPNDLMWWRRLFRAIDKWAPPGQRLLLVTTEGRVIGAERSEMQIIRNFIGQADNADHPQKKKYGRVELVGPFSVRDGEDNYQLYLIRPASSSQSDFINLLFDR"}}, "target": "E. coli CpxA sensor domain corresponding to residues 31-163 (E. coli) (UniProt P0AE82)", "experiment": "crystal structure", "note": "No constants are given. Whether binding was seen depends on the method and setting.", "data": [{"binder": "B1", "values": [{"measurement": "binding", "value": "no binding"}]}]}
